Common to all, as to test: log2 fold change, soluble protein after heating vs DMSO (PISA); higher = thermal stabilisation; K562 lysate, 10 uM; active = over 0.2 and 3.5 SD of the protein, either way, in both replicates (recomputed)
Compound in test [1]: NCC(=O)Nc1ccc(-n2nc(C(F)(F)F)cc2-c2ccc3c(ccc4ccccc43)c2)cc1
The gist of the method:
(§1)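 Values give the log-two fold change in thermal stability against solvent controls, from duplicates. Crude K562 extract at 1 mg/mL protein, made by dounce homogenisation in PBS pH 7.4 with 1 mM MgCl2, was treated with 10 μM compound for 30 min. After 3 min heating across 48°C-58°C, aliquots were pooled, adjusted to 0.5% NP-40 at 4°C and centrifuged at 21,000xg for 90 min. The supernatant was measured by TMTpro 16plex LC-MS/MS with channel sums equalised.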

Protein sequences, listed by entry. Tags and fused reporters are not part of them. Lines headed by an entry give the natural chain unless they say otherwise; changes in a name come on top.
UniProt Q8IWL3: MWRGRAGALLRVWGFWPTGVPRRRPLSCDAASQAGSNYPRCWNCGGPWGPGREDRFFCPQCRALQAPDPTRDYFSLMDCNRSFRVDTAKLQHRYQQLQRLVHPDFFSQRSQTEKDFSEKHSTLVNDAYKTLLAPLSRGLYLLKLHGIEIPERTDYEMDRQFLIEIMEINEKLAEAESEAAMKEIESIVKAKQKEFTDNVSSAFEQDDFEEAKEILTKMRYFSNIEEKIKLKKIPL
UniProt P22626: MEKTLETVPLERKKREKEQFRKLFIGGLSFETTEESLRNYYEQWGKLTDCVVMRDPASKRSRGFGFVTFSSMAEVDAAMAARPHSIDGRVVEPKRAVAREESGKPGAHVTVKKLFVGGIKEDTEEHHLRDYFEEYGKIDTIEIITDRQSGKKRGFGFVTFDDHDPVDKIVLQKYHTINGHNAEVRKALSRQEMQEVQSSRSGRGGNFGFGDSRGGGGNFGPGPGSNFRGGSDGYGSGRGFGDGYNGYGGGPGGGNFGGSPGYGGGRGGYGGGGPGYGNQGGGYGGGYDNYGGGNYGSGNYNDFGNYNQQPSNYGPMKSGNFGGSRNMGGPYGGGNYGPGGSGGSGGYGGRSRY
UniProt Q9BX68: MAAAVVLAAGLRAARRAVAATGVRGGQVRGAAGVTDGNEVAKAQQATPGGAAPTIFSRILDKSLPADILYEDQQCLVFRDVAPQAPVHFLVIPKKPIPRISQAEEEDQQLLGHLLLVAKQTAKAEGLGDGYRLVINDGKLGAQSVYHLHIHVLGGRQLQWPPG
UniProt P34932: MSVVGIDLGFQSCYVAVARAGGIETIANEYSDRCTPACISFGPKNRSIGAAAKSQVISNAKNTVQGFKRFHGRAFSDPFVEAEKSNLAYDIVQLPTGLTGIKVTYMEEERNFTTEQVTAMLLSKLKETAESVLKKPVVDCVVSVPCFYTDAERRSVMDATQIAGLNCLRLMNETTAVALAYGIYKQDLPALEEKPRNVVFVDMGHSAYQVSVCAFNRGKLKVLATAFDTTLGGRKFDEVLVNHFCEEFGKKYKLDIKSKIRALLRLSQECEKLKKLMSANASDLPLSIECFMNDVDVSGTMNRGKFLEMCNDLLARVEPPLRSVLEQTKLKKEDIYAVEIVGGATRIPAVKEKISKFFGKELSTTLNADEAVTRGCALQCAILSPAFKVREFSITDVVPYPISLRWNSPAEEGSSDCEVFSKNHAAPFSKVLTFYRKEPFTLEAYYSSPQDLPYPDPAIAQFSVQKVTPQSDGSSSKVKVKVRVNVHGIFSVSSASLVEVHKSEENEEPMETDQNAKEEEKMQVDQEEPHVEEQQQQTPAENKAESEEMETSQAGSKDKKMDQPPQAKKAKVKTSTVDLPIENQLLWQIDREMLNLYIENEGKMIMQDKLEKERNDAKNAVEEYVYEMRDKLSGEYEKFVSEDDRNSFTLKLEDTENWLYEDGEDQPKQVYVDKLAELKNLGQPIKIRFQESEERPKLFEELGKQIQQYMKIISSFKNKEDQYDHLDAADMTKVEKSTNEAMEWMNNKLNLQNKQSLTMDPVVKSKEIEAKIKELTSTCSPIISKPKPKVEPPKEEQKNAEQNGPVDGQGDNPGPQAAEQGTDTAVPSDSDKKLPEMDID
UniProt P55795: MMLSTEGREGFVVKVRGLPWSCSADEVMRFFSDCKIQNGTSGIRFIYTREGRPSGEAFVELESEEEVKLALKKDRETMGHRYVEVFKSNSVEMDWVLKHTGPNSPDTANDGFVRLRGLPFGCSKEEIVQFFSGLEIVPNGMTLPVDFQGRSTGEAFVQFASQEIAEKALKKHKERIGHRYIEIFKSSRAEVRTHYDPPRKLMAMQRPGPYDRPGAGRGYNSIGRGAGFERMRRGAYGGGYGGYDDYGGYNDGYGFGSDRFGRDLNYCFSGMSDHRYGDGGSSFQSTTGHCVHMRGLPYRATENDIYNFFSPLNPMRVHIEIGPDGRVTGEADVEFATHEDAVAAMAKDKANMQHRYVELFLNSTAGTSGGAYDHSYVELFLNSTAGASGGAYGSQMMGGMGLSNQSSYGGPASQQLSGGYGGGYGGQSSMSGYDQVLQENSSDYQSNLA
UniProt Q969F9: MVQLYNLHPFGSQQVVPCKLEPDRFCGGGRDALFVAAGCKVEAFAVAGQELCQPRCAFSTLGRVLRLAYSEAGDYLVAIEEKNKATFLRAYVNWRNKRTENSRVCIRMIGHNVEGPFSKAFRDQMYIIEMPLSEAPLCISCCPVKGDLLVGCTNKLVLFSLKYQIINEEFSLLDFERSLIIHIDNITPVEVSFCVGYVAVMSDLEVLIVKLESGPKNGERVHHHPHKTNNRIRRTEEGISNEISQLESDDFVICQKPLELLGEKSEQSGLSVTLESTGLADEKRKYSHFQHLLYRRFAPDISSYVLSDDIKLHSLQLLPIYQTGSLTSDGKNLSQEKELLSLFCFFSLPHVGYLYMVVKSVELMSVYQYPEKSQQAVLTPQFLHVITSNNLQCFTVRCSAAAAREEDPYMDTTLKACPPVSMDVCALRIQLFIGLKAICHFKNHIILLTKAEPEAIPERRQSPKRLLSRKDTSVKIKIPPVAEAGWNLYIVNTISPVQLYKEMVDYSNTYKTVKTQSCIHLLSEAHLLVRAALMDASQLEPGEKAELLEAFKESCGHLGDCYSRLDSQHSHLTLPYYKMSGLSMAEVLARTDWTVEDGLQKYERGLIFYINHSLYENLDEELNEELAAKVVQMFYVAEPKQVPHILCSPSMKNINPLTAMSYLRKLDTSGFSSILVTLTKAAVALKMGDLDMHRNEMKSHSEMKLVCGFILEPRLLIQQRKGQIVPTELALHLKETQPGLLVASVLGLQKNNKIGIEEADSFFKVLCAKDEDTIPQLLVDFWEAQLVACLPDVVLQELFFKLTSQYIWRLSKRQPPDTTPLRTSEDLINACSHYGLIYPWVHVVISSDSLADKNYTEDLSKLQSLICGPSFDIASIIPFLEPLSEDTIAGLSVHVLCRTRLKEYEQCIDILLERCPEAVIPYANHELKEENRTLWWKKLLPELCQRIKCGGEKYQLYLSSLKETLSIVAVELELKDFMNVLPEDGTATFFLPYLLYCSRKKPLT
UniProt P42694: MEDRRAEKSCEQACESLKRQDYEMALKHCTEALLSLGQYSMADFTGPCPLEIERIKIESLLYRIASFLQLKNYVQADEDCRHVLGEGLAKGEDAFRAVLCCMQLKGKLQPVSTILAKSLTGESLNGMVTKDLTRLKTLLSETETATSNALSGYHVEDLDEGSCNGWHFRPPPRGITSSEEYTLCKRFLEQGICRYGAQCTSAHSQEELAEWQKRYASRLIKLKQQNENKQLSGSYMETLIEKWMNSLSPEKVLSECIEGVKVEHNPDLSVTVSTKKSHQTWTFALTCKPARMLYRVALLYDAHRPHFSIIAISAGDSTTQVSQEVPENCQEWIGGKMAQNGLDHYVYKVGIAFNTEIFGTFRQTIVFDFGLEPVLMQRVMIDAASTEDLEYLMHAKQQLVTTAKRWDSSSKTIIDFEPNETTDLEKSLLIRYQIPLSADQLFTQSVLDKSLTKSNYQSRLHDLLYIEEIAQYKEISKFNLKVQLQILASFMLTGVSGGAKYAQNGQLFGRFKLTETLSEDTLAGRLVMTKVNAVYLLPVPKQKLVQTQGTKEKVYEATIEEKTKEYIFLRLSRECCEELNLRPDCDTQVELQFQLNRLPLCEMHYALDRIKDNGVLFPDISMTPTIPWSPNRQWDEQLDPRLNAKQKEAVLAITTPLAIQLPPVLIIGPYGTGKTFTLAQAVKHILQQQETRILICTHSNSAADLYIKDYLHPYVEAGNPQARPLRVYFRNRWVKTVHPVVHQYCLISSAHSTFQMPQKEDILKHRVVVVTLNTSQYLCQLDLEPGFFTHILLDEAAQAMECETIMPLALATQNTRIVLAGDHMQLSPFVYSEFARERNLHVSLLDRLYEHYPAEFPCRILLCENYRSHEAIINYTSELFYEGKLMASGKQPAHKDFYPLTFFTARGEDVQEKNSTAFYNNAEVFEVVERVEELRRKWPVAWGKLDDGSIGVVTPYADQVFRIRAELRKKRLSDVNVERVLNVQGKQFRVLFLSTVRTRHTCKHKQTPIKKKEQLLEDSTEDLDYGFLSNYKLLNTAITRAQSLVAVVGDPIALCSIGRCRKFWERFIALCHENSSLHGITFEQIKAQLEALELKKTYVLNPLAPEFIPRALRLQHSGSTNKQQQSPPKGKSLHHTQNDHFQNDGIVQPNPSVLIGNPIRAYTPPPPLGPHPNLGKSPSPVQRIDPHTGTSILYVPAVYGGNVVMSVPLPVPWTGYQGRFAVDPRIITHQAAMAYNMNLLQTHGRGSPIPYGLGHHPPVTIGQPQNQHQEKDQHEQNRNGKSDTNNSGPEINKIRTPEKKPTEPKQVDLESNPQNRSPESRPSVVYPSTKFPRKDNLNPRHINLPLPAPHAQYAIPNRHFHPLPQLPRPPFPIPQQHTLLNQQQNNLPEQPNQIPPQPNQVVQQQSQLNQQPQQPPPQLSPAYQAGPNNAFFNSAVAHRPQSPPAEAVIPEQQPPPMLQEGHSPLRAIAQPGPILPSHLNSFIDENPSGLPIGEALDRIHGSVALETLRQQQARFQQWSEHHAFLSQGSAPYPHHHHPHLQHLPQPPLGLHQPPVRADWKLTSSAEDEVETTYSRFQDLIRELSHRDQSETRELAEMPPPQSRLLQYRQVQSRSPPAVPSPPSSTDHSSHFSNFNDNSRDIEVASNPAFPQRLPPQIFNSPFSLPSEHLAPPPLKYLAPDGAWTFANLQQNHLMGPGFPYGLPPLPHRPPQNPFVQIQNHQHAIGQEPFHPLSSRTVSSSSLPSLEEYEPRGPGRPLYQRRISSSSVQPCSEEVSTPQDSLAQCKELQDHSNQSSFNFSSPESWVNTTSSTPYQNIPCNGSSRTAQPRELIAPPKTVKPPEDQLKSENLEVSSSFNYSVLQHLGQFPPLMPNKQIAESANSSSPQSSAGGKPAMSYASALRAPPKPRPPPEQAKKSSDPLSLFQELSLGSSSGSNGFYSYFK
UniProt O75146: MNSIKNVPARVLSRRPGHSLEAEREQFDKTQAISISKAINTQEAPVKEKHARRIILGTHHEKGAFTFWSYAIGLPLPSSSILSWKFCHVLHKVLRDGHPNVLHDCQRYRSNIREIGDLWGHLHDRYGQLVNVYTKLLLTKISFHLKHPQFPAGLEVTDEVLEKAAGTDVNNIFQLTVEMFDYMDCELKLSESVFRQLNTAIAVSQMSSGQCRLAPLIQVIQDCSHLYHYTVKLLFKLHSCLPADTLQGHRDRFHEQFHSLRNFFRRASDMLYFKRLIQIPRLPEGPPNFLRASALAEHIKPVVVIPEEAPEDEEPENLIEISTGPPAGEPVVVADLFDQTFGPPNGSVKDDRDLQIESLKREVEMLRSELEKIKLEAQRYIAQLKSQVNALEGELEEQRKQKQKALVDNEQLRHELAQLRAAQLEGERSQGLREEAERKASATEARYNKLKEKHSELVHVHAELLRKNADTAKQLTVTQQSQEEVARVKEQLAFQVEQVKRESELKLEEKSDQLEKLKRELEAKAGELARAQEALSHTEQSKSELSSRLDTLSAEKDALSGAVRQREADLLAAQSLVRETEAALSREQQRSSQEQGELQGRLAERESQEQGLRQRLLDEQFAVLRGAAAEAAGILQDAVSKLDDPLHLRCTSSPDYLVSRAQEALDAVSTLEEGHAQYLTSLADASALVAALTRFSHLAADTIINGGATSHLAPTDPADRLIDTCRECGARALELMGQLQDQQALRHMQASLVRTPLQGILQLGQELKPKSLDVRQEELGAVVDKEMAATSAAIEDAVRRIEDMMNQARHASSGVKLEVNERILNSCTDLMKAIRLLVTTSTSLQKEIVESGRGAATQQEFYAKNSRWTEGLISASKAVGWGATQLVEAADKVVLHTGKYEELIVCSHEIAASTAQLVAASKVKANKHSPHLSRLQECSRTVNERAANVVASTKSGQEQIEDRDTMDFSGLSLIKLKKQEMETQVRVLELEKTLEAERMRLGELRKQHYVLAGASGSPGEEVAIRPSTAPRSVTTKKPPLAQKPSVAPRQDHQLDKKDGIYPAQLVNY
UniProt Q8TCT9: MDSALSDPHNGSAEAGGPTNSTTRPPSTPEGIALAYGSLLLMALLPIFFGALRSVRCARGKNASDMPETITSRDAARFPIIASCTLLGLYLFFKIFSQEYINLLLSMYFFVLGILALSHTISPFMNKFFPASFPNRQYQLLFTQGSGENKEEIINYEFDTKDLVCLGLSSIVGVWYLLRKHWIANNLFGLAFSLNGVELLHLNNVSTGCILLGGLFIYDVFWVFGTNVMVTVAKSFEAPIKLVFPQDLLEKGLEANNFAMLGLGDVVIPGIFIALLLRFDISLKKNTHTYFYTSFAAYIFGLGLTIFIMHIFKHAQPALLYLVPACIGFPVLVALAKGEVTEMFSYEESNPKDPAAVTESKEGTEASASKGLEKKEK

Compound in test [2]: O=C(CCCCCCC(=O)Nc1ccccc1)NO [vorinostat]
The method in brief:
as §1

Compound in test [3]: O=C(O)c1ccc2c(c1)nc(Nc1cccc(Cl)c1)c1ccncc12 [silmitasertib]
The method in brief: as §1

Compound in test [4]: O=C1NC(=O)C(c2cnc3ccccn23)=C1c1cn2c3c(cc(F)cc13)CN(C(=O)N1CCCCC1)CC2
The gist of the method: as §1

Compound in test [5]: c1cn2cc(-c3ccc4cn[nH]c4c3)nc(Nc3ccc(N4CCOCC4)cc3)c2n1 [entospletinib]
The method in brief:
as §1

The other results are listed elsewhere or left out.

On to HNRNPK isoform 2 (UniProt P61978), for which the log2 fold change in test [1] is inactive: 0.012; in test [2], inactive: -0.156; in test [3], inactive: 0; in test [4], inactive: -0.02; in test [5] it was inactive: 0.023.

As for HSCB (UniProt Q8IWL3), the log2 fold change was inactive: 0.101 in test [1]; inactive: 0.033 in test [2]; inactive: 0.033 in test [3]; inactive: -0.078 in test [4]; inactive: 0.092 in test [5].

Regarding HNRNPA2B1 (UniProt P22626), the log2 fold change in test [1] was inactive: 0.003; in test [2] it was inactive: 0.053; in test [3], inactive: -0.009; in test [4], inactive: -0.001; in test [5], inactive: 0.012.

On to HSP90AA1 isoform 2 (UniProt P07900), for which the log2 fold change in test [1] was inactive: -0.008; in test [2], inactive: 0.13; in test [3], inactive: -0.005; in test [4], inactive: -0.008; in test [5], inactive: -0.006.

Turning to HEBP2 (UniProt Q9Y5Z4), the log2 fold change was inactive: 0.005 in test [1]; inactive: 0.15 in test [2]; inactive: -0.011 in test [3]; inactive: -0.018 in test [4]; inactive: 0.015 in test [5].

Turning to HMBOX1 isoform 5 (UniProt Q6NT76), the log2 fold change in test [1] was inactive: 0.004; in test [2], inactive: 0.093; in test [3], inactive: 0.025; in test [4], inactive: 0.02; in test [5] it was inactive: -0.063.

Consider HINT2 (UniProt Q9BX68), for which the log2 fold change in test [1] is inactive: -0.089; in test [2], inactive: 0.142; in test [3], inactive: 0.053; in test [4] it was inactive: 0.132; in test [5], inactive: 0.045.

On to HIBADH (UniProt P31937), for which the log2 fold change is inactive: 0.059 in test [1]; inactive: 0.125 in test [2]; inactive: -0.04 in test [3]; inactive: 0.008 in test [4]; inactive: -0.011 in test [5].

On to HSPA4L (UniProt O95757), for which the log2 fold change in test [1] is inactive: 0.002; in test [2], inactive: -0.038; in test [3] it was inactive: -0.002; in test [4] it was inactive: -0.018; in test [5], inactive: 0.01.

In the case of HSPA4 (UniProt P34932), the log2 fold change in test [1] is inactive: 0.002; in test [2], inactive: 0.009; in test [3] it was inactive: 0.003; in test [4], inactive: -0.019; in test [5], inactive: 0.002.

HMCN1 (UniProt Q96RW7): the log2 fold change in test [1] is inactive: -0.015.

On to HOMER1 (UniProt Q86YM7), for which the log2 fold change was inactive: -0.005 in test [1]; inactive: 0.038 in test [2]; inactive: -0.024 in test [3]; inactive: -0.057 in test [4]; inactive: -0.045 in test [5].

As to HNRNPD isoform 3 (UniProt Q14103), the log2 fold change in test [1] is inactive: 0.074; in test [2] it was inactive: 0.078; in test [3], inactive: 0.005; in test [4], inactive: 0.09; in test [5] it was inactive: 0.

Take HJURP (UniProt Q8NCD3): the log2 fold change in test [1] was inactive: 0.105; in test [2] it was inactive: -0.244; in test [3], inactive: -0.017; in test [4] it was inactive: 0.003.

As to HNRNPH2 (UniProt P55795), the log2 fold change was inactive: -0.008 in test [1]; active: -0.243 in test [2]; inactive: 0.005 in test [3]; inactive: -0.054 in test [4]; inactive: 0.002 in test [5].

Take HPS3 (UniProt Q969F9): the log2 fold change is inactive: -0.167 in test [1]; inactive: -0.282 in test [2]; inactive: 0.025 in test [3]; inactive: 0.207 in test [4]; inactive: -0.237 in test [5].

Turning to HELZ (UniProt P42694), the log2 fold change is inactive: 0.04 in test [1]; inactive: -0.123 in test [2]; inactive: 0.017 in test [3]; inactive: 0.03 in test [4]; inactive: -0.009 in test [5].

Turning to HEXIM1 (UniProt O94992), the log2 fold change in test [1] was inactive: 0.004; in test [2] it was inactive: 0.096; in test [3], inactive: 0.031; in test [4] it was inactive: -0.063; in test [5] it was inactive: -0.001.

Regarding HSPA6 (UniProt P17066), the log2 fold change is inactive: 0.01 in test [1]; inactive: 0.083 in test [2]; inactive: 0.005 in test [3]; inactive: 0.016 in test [4]; inactive: 0.007 in test [5].

Regarding HIST2H2BF isoform 2 (UniProt Q5QNW6), the log2 fold change in test [1] was inactive: 0.012; in test [2], inactive: 0.098; in test [3] it was inactive: 0; in test [4] it was inactive: 0.009; in test [5], inactive: -0.012.

Take HIP1R (UniProt O75146): the log2 fold change in test [1] is inactive: 0; in test [2], inactive: -0.092; in test [3] it was inactive: -0.039; in test [4] it was inactive: 0.008; in test [5], inactive: -0.009.

With HNRNPM (UniProt M0R019), the log2 fold change in test [1] is inactive: -0.198.

HM13 (UniProt Q8TCT9): the log2 fold change in test [1] is inactive: 0.04; in test [2] it was inactive: 0.105; in test [3] it was inactive: 0.038; in test [4] it was inactive: 0.065; in test [5], inactive: 0.013.

Take HMBS (UniProt P08397): the log2 fold change in test [1] was inactive: -0.002; in test [2], inactive: 0.136; in test [3] it was inactive: -0.02; in test [4], inactive: 0.017; in test [5] it was inactive: 0.028.

As to HHEX (UniProt Q03014), the log2 fold change in test [1] was inactive: -0.001; in test [2], inactive: 0.106; in test [3], inactive: -0.021; in test [4], inactive: -0.113; in test [5] it was inactive: -0.072.

For HMGN2 (UniProt P05204), the log2 fold change in test [1] was inactive: -0.025; in test [2] it was inactive: 0.139; in test [3], inactive: 0.017; in test [4] it was inactive: 0.062; in test [5], inactive: 0.047.

The values above are taken from the supplement of paper PMC10849652.
